For part of these data: Strings that start with PEPTIDE1 are HELM notation: dots part the residues, brackets hold end groups and non-standard residues. Numbered stars: 1 amine (or outer) side, 2 acyl side, 3 side chain; on linkers, the order of the positions; unused ones are H or OH. Square brackets hold non-standard residues; d marks the D form. Peptide text beside a SMILES is read from it. * marks the point of attachment. X4 = NP(=O)(OCc1c(F)cc(N*)cc1F)N(CCCl)CCCl; X2 = NP(=O)(OCc1ccc(N*)c(F)c1)N(CCCl)CCCl; X1 = NP(=O)(OCc1ccc(N*)cc1F)N(CCCl)CCCl; X3 = NP(=O)(OCc1ccc(N*)cc1)N(CCCl)CCCl; Glutaryl = O=C(CCCC(=O)[*:2])[*:1]; Hyp = O=C(O)[C@@H]1C[C@@H](O)CN1; Chg = N[C@H](C(=O)O)C1CCCCC1
system: LNCaP human prostate cancer cell line; assay: In vitro antiproliferative activity assay in PSA-producing LNCaP cells; assay type: cell-based; conditions: not given
From the text: Furthermore, analogs 5b and 5c were synthesized with an electron-withdrawing fluorine atom at C2 (5b) and C3 (5c), respectively.

| Molecule | Selectivity (ratio of IC50 in DU145 and IC50 in LNCaP) |
| --- | --- |
| C[C@H](NC(=O)[C@@H]1C[C@@H](O)CN1C(=O)CCCC(=O)O)C(=O)N[C@@H](CO)C(=O)N[C@H](C(=O)N[C@@H](CCC(N)=O)C(=O)Nc1ccc(COP(N)(=O)N(CCCl)CCCl)cc1F)C1CCCCC1 (stereo partly drawn) [5c, glutaryl-Hyp-Ala-Ser-Chg-Gln-NH-3-fluorobenzyl phosphoramide mustard] (Glutaryl-[Hyp]AS[Chg]Q-X2) | >3 |
| C[C@H](NC(=O)[C@@H]1C[C@@H](O)CN1C(=O)CCCC(=O)O)C(=O)N[C@@H](CO)C(=O)N[C@H](C(=O)N[C@@H](CCC(N)=O)C(=O)Nc1ccc(COP(N)(=O)N(CCCl)CCCl)cc1)C1CCCCC1 (stereo partly drawn) [5a, glutaryl-Hyp-Ala-Ser-Chg-Gln-NH-benzyl phosphoramide mustard] (Glutaryl-[Hyp]AS[Chg]Q-X3) | 3 |
| C[C@H](NC(=O)[C@@H]1C[C@@H](O)CN1C(=O)CCCC(=O)O)C(=O)N[C@@H](CO)C(=O)N[C@H](C(=O)N[C@@H](CCC(N)=O)C(=O)Nc1ccc(COP(N)(=O)N(CCCl)CCCl)c(F)c1)C1CCCCC1 (stereo partly drawn) [5b, glutaryl-Hyp-Ala-Ser-Chg-Gln-NH-2-fluorobenzyl phosphoramide mustard] (Glutaryl-[Hyp]AS[Chg]Q-X1) | >19 |
| C[C@H](NC(=O)[C@@H]1C[C@@H](O)CN1C(=O)CCCC(=O)O)C(=O)N[C@@H](CO)C(=O)N[C@H](C(=O)N[C@@H](CCC(N)=O)C(=O)Nc1cc(F)c(COP(N)(=O)N(CCCl)CCCl)c(F)c1)C1CCCCC1 (stereo partly drawn) [5d, glutaryl-Hyp-Ala-Ser-Chg-Gln-NH-2,6-difluorobenzyl phosphoramide mustard] (Glutaryl-[Hyp]AS[Chg]Q-X4) | >5 |

system: not listed separately; assay: general procedure: Fmoc solid-phase peptide synthesis; SASRIN (2-methoxy-4-alkoxybenzyl alcohol, 200-400 mesh, Bachem) or WANG-type HMP resin (Advanced Chemtech); DMAP/DIC (SASRIN) or HOBt/DMAP/DIC (WANG) for first amino acid; HBTU/DIPEA for s; conditions: conjugation step

| Molecule | conjugation yield |
| --- | --- |
| PEPTIDE1{[Glt].[Hyp].A.S.[Chg].Q.[NH-Bn-PM]}$$$$V2.0 | 30% |
| PEPTIDE1{[Glt].[Hyp].A.S.[Chg].Q.[NH-2,6-diF-Bn-PM]}$$$$V2.0 | 40% |
| PEPTIDE1{[Glt].[Hyp].A.S.[Chg].Q.[NH-tetraF-Bn-PM]}$$$$V2.0 | 30% |
| PEPTIDE1{[Glt].[Hyp].A.S.[Chg].Q.[NH-2F-Bn-PM]}$$$$V2.0 | 38% |
| PEPTIDE1{[Glt].[Hyp].A.S.[Chg].Q.[NH-3F-Bn-PM]}$$$$V2.0 | 28% |

— US8518891B2 (priority 2006, dated 2013)
